Among the data in doi:10.1101/2025.05.27.656397, “A new heme enzyme family forms hydrazine groups in diverse biosynthetic pathways” (bioRxiv, 2025) are binding values, retold here.

No constants are given. Whether binding was seen depends on the method and setting. Binding can be weak; no strength is given. Tags and fused reporters may be left off the sequences shown. For some assays here: In cells and extracts the contact can be indirect.

In test [1] the target is T1, N-terminally His6-tagged KinI (ferredoxin) (S. murayamaensis).
T1 sequence: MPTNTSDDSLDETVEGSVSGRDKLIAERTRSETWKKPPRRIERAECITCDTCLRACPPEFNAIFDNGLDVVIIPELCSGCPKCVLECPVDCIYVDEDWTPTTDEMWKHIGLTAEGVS
Nature of the test: SEC; anaerobic size exclusion chromatography of proteins expressed alone or co-expressed and purified; both purified. (Size exclusion chromatography separates by hydrodynamic size, large species first.)

Test [2] has the same target. Briefly: pull-down; proteins co-expressed in E. coli, His6 tag on one partner at the N- or C-terminus, expressed aerobically, purified anaerobically; partner found in the affinity-purified material.

For the substance FzmP, co-expressed with KinI (enzyme), the binding result in test [1] and in test [2] was “binds” throughout.
